Results are given in words; binding and its absence hold for the method and conditions named. Binding seen in cells or lysates may run through a third protein. A yes stands for co-enrichment or nearness to the bait. Other partners may have been found.
Target: T1, autophagy-related protein 9B (ATG9B), endogenous (human (endogenous in SW620, LoVo, SW480)) (UniProt Q674R7)
T1 sequence: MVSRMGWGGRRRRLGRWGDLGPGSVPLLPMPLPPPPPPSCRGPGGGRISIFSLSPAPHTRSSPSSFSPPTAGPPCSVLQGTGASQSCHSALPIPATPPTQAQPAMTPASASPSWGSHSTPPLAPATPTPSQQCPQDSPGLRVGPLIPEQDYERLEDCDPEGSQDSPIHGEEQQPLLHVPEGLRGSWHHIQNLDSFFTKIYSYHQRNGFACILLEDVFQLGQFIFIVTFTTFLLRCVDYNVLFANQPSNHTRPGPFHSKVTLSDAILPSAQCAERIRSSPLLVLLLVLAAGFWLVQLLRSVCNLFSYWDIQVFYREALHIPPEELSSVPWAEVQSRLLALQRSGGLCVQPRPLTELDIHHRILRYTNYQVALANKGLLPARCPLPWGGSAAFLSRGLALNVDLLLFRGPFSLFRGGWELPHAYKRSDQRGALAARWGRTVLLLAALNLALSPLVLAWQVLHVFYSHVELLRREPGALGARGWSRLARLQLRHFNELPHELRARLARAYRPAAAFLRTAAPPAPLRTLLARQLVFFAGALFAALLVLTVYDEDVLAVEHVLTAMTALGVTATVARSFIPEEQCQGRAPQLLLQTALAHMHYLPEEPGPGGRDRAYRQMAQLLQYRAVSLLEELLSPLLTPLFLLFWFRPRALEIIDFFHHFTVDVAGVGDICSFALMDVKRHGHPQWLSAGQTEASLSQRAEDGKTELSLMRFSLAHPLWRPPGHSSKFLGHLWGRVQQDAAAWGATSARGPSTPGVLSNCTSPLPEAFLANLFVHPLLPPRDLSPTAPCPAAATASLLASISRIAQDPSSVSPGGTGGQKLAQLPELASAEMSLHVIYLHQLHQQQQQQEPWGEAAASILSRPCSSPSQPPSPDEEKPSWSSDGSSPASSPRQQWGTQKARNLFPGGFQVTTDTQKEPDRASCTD
Assay: affinity purification with mass spectrometry; LoVo and SW620 lysates, immunoprecipitation with anti-ATG9B antibody or rabbit IgG, silver staining, differential band at >170 KD analysed by LC-MS

Protein sequences, listed by entry. Tags and fused reporters are not part of them.
UniProt Q9Y490: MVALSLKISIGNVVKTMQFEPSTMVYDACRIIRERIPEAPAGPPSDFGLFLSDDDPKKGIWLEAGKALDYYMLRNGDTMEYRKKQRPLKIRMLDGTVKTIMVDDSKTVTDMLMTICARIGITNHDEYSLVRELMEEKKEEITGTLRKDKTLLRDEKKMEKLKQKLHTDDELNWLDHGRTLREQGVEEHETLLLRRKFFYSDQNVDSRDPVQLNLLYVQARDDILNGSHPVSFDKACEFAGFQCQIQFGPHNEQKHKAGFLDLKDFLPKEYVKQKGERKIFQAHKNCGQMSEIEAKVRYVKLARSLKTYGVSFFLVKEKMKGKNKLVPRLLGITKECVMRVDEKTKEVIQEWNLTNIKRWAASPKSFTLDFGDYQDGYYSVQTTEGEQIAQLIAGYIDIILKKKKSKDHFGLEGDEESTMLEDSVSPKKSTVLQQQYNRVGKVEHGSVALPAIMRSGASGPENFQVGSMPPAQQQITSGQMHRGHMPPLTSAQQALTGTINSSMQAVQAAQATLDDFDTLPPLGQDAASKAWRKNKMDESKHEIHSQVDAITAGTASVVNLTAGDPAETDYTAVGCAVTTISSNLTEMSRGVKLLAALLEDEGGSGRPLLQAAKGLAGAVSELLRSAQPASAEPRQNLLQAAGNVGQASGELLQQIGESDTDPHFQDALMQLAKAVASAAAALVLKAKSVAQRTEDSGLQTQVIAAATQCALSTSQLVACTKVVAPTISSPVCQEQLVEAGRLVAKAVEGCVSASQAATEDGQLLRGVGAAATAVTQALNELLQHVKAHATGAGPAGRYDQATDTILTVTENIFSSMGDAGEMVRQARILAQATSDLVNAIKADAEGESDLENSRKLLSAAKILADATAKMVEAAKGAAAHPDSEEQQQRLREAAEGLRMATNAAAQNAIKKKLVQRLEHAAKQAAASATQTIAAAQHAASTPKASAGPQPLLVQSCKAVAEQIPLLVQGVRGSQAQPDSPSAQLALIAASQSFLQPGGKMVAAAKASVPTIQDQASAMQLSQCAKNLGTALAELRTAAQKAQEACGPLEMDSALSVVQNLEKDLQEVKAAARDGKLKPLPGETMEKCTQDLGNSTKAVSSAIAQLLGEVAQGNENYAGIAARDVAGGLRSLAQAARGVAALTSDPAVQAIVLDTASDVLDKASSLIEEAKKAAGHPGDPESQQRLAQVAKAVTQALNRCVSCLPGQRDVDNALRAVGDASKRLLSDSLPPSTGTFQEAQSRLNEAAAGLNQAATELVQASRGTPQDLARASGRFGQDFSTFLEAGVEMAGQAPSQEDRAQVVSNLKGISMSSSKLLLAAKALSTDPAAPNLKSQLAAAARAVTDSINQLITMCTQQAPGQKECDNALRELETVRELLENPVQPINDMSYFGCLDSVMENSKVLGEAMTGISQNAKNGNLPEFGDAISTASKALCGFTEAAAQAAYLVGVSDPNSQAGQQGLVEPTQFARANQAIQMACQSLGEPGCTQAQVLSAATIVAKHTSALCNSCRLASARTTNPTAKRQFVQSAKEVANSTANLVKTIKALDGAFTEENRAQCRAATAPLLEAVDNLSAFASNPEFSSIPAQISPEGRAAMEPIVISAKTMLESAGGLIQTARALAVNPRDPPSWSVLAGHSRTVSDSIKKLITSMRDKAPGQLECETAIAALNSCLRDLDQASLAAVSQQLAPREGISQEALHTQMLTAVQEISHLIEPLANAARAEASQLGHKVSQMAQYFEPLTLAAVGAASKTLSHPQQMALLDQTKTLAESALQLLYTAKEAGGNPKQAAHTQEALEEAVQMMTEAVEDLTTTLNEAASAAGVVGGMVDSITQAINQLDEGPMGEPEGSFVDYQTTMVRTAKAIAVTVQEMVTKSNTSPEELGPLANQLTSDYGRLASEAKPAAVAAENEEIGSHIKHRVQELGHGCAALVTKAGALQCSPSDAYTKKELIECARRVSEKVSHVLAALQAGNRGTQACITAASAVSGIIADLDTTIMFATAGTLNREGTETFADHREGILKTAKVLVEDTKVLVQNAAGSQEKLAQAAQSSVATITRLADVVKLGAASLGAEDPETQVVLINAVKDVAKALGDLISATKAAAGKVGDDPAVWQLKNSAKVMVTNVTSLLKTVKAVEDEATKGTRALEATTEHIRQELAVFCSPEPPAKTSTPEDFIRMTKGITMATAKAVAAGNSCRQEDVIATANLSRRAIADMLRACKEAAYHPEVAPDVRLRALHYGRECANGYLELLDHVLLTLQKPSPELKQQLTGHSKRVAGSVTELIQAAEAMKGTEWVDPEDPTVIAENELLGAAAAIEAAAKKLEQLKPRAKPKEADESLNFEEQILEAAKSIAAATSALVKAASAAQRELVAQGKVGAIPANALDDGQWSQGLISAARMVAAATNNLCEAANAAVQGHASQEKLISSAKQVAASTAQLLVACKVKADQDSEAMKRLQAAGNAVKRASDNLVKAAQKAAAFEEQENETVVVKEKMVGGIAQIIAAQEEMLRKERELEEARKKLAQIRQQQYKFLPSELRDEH
UniProt P35579: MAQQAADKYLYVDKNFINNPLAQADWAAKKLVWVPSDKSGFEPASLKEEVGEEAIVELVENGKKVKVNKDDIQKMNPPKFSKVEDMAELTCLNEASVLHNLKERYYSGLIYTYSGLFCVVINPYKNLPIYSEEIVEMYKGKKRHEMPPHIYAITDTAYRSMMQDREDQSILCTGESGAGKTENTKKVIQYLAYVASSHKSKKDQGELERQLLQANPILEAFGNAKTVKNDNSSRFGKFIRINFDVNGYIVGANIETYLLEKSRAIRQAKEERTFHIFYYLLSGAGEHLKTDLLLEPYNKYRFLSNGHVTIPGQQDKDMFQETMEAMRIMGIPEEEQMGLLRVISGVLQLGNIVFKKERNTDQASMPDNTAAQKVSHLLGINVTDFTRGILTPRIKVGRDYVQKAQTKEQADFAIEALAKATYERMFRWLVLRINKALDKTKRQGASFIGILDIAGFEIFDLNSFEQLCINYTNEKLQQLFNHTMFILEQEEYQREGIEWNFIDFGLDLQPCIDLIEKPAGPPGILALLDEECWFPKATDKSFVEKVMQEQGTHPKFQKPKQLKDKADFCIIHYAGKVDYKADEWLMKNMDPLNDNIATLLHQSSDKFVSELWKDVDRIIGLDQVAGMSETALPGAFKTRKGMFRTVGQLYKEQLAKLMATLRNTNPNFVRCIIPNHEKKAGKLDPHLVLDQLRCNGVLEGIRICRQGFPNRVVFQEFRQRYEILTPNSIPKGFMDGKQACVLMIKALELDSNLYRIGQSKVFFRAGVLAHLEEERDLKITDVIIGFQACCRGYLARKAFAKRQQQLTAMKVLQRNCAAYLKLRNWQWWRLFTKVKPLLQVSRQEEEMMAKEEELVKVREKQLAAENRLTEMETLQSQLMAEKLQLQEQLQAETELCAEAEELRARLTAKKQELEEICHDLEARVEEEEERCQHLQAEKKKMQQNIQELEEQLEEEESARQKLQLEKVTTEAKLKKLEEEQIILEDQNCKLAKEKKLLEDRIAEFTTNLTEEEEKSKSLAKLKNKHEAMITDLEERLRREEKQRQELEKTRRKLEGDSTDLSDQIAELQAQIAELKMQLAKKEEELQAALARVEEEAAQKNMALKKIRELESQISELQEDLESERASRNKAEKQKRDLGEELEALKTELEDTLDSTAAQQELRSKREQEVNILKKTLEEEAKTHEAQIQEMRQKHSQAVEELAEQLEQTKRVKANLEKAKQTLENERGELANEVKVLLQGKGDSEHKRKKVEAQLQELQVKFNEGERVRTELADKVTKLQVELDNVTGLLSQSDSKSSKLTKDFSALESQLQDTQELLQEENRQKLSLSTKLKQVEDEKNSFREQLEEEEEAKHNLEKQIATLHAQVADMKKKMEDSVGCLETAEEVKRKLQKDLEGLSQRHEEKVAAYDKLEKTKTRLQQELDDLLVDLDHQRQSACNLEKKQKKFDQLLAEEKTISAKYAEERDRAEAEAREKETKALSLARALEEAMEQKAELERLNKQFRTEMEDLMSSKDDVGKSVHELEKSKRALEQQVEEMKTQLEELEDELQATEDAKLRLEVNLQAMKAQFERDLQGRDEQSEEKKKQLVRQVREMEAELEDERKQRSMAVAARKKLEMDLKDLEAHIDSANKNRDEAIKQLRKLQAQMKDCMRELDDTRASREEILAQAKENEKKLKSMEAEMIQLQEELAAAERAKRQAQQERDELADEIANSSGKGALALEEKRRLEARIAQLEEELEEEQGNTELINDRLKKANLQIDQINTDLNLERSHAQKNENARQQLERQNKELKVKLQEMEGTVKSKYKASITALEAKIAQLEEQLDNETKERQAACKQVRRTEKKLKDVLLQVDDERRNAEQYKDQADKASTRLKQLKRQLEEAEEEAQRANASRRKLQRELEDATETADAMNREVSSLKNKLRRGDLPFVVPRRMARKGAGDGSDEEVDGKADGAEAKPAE

## Talin-1, endogenous (from UniProt Q9Y490 1-2541)
  binding: binds

## myosin-9 (MYH9), endogenous (from UniProt P35579 1-1960)
  binding: binds

— publication PMC8629984
